Source: PubChem BioAssay AID1259308 (NCATS, 2017)
Aim: 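Knock-downs that increase output of a recombinant reporter protein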 (primary screen). Cells: human HEK293 embryonic kidney cells stably expressing firefly luciferase (HEK-CMV-Luc2-Hygro). Reagents: single siRNA against human genes, 0.8 pmol siRNA per well. Timing: 72 h. Measured: 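Reporter luminescence and viable-cell signal on separate replicate plates, given as percent of non-targeting control and median/MAD z-scores, plus per-cell luciferase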. Direction: total luciferase, z-score and total luciferase, % of control: higher = more reporter protein produced. Active means: 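An siRNA counts as active if its total luciferase robust z-score exceeds 3; genes with two or more such siRNAs out of three were retested with fresh siRNAs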. Calls: active = raised luciferase; inactive = no rise.
The deposit covers about 59,000 reagents; this is a random part of them. About 1,510 of them (2.6%) were called active. 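Calls use total luciferase alone and ignore viability, so some active siRNAs may act by altering cell number.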 A number with no mark means an inactive call. Reagents against one gene are numbered here. Further read-outs or replicates are left out here.

no.	target gene	reagent	total luciferase, z-score	total luciferase, % of control
1	PFAS	1	-0.274	76.4
2	PFAS	2	-0.74	67.2
3	PFAS	3	-0.93	63.4
4	TRIP4	1	-0.714	67.7
5	TRIP4	2	0.829	98.4
6	TRIP4	3	1.04	103
7	PABIR2	1	6.35 (active)	208
8	PABIR2	2	-0.625	69.5
9	PABIR2	3	0.628	94.4
10	EPRS1	1	0.595	93.7
11	EPRS1	2	-1.33	55.4
12	EPRS1	3	0.798	97.8
13	RND2	1	-0.471	72.5
14	RND2	2	1.26	107
15	RND2	3	1.21	106
16	SYNGR2	1	-0.447	73
17	SYNGR2	2	-0.209	77.7
18	SYNGR2	3	-0.22	77.5
19	IQSEC2	1	0.621	94.2
20	IQSEC2	2	0.649	94.8
21	IQSEC2	3	-1.76	46.9
22	LINC01822	1	0.175	85.4
23	LINC01822	2	2.18	125
24	LINC01822	3	0.737	96.6
25	HSPA4	1	-0.812	65.7
26	HSPA4	2	1.07	103
27	HSPA4	3	-0.949	63
28	ARPC4	1	0.863	99.1
29	ARPC4	2	3.42 (active)	150
30	ARPC4	3	-0.43	73.3

Records listed so far with an active call (2):
target gene	reagent	total luciferase, z-score	total luciferase, % of control
PABIR2	1	6.35 (active)	208
ARPC4	2	3.42 (active)	150

The results go on.
no.	target gene	reagent	total luciferase, z-score	total luciferase, % of control
31	SHH	1	-1.48	52.5
32	SHH	2	-0.435	73.2
33	SHH	3	-1.48	52.4
34	ALDH5A1	1	0.217	86.2
35	ALDH5A1	2	0.0124	82.1
36	ALDH5A1	3	-0.841	65.2
37	KIAA0319	1	-1.75	47
38	KIAA0319	2	-0.901	64
39	KIAA0319	3	0.568	93.2
40	BLCAP	1	1.54	112
41	BLCAP	2	-0.175	78.4
42	BLCAP	3	0.855	98.9
43	CEPT1	1	-0.565	70.7
44	CEPT1	2	0.838	98.5
45	CEPT1	3	-0.889	64.2
46	CYBC1	1	0.444	90.7
47	CYBC1	2	0.211	86.1
48	CYBC1	3	-1.06	60.8
49	RPS23P8	1	-0.782	66.3
50	RPS23P8	2	-0.711	67.7
51	RPS23P8	3	-2.63	29.6
52	VTA1	1	-0.841	65.2
53	VTA1	2	0.458	91
54	VTA1	3	1.1	104
55	LDHA	1	-0.461	72.7
56	LDHA	2	-1.4	54
57	LDHA	3	-0.278	76.4
58	ARX	1	-0.273	76.5
59	ARX	2	1.77	117
60	ARX	3	0.308	88
61	RPRM	1	-1.84	45.2
62	RPRM	2	1.67	115
63	RPRM	3	-1.25	57.1
64	FAM53A	1	0.0357	82.6
65	FAM53A	2	0.489	91.6
66	FAM53A	3	0.945	101
67	TNIP1	1	-0.0151	81.6
68	TNIP1	2	3.69 (active)	155
69	TNIP1	3	-0.746	67
70	TFCP2L1	1	6.63 (active)	214
71	TFCP2L1	2	-1.29	56.2
72	TFCP2L1	3	0.727	96.3
73	VSIR	1	-0.181	78.3
74	VSIR	2	-1.13	59.5
75	VSIR	3	0.426	90.4
